In doi:10.1101/2021.12.02.470903:
No constants are given. Whether binding was seen depends on the method and setting. Binding seen in cells or lysates may run through a third protein. Some binding calls cover weakened binding; strength is not graded here. Tags and fused reporters may be left off the sequences shown.

Sequences of proteins named here, by UniProt entry; tags and fusion partners are left off.
UniProt Q0WNJ6: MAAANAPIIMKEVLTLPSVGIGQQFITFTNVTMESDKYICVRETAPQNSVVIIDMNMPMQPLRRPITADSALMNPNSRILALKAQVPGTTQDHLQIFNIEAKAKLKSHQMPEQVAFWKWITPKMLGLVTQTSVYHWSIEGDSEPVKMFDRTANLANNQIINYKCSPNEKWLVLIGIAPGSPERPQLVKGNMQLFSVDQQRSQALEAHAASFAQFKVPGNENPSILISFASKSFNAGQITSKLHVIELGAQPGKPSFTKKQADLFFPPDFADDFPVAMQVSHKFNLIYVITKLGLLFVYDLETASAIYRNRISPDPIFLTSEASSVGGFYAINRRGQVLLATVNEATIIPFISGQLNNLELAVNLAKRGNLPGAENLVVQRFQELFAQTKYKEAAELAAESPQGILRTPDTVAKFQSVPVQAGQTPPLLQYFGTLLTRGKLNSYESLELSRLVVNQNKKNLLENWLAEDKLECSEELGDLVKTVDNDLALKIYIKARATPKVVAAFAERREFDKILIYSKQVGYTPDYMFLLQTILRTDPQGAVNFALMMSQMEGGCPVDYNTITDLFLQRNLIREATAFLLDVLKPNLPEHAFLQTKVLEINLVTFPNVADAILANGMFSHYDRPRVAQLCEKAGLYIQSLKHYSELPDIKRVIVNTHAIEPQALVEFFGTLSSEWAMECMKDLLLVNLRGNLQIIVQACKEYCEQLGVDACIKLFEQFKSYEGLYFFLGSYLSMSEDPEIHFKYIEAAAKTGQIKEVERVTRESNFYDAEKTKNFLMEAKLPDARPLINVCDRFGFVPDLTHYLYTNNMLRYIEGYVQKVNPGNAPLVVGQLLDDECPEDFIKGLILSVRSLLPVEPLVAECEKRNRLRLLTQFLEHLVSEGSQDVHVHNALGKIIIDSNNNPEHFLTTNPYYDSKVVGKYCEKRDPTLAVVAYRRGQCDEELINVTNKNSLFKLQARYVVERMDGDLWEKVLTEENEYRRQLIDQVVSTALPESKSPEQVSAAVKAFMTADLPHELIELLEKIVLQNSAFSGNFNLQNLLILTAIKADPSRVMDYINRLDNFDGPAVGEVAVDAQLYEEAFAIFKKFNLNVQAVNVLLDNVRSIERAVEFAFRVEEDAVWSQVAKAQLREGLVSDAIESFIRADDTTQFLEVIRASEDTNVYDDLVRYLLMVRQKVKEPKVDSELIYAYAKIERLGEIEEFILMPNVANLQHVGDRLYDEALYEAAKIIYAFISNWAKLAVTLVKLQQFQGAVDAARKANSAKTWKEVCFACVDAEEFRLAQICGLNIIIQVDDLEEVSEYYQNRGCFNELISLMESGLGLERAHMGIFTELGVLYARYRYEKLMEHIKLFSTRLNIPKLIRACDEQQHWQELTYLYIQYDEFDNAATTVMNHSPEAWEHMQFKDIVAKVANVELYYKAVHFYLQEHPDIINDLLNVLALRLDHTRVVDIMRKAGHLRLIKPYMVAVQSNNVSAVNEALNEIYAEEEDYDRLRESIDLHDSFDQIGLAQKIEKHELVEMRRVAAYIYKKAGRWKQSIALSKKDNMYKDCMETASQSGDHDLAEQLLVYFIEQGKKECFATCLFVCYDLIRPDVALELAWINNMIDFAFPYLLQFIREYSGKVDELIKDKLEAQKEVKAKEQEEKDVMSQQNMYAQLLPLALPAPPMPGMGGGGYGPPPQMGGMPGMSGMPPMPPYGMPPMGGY
UniProt P25858: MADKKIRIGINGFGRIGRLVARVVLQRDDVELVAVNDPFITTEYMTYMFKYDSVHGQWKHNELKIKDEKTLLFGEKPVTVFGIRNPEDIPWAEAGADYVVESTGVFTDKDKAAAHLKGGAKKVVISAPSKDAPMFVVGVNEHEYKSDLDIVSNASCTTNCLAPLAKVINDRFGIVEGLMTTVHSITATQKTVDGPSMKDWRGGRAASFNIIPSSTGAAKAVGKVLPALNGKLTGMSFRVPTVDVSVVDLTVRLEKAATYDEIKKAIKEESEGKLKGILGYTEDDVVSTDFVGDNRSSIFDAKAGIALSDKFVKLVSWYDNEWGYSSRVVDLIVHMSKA
UniProt Q0WLB5: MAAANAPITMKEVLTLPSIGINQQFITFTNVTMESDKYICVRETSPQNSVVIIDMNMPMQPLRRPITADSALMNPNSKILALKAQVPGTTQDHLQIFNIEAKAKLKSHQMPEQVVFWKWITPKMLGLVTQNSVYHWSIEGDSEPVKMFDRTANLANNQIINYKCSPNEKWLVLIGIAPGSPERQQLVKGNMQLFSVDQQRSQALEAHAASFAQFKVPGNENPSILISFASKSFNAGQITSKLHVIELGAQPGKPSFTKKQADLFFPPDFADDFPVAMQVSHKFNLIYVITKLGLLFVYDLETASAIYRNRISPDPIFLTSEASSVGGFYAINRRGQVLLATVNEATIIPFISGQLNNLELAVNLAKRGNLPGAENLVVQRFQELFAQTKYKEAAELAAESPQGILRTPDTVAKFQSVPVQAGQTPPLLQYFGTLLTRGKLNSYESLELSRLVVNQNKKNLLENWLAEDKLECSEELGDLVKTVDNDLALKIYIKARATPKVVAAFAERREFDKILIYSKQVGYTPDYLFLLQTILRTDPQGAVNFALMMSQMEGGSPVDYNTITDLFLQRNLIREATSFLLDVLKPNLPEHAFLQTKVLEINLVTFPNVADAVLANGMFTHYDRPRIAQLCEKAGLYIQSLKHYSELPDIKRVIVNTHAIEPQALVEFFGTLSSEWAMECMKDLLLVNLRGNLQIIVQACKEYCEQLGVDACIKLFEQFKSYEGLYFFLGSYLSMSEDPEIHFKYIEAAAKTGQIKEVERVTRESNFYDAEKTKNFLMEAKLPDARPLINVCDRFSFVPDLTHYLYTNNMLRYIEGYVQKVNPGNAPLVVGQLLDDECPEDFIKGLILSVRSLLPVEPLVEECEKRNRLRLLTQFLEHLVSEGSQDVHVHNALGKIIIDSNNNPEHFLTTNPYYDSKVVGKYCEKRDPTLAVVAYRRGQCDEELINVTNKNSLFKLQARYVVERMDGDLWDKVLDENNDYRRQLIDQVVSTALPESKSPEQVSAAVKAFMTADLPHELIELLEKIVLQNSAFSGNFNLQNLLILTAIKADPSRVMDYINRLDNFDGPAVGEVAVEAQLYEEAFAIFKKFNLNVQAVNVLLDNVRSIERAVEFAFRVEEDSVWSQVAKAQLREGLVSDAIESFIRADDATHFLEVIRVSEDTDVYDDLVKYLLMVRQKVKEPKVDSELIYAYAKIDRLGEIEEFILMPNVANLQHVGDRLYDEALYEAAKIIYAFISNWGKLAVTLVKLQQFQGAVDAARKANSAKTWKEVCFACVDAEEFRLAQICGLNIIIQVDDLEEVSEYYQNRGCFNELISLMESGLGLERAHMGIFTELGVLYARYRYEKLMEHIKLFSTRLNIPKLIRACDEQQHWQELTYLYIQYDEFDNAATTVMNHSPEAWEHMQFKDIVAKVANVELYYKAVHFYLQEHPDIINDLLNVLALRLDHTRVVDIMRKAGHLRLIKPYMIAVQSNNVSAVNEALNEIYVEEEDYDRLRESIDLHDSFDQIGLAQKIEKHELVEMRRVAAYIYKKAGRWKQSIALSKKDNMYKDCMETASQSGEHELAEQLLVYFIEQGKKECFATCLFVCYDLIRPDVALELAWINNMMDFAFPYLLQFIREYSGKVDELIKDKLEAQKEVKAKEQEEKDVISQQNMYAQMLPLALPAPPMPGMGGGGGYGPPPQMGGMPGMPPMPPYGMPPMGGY

Columns and labels:
[1] = target: T1, CV-nYFP (Arabidopsis thaliana) (UniProt Q8S8K8); assay: split reporter
T1 sequence: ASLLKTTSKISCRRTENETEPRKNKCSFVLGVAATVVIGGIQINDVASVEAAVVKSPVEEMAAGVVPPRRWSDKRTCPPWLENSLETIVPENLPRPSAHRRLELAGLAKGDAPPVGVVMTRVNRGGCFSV

[2] = target: T2, CV-HA (transiently expressed in tobacco leaves) (Arabidopsis thaliana) (UniProt Q8S8K8); assay: co-IP
T2 sequence: T1 sequence

[3] = target: T3, nYFP-CV (Arabidopsis thaliana) (UniProt Q8S8K8); assay: split reporter
T3 sequence: T1 sequence

Row | binding [1] | binding [2] | binding [3] | Substance
1 | binds |  |  | cYFP-CHC1 (from UniProt Q0WNJ6 1-1705)
2 |  | binds |  | GAPC1-FLAG (GAPC1-6×FLAG, transiently expressed in tobacco leaves) (from UniProt P25858 1-338) (enzyme)
3 | binds |  | binds | cYFP-CHC2 (from UniProt Q0WLB5 1-1703)
4 | binds |  |  | cYFP-GAPC1 (from UniProt P25858 1-338) (enzyme)
